Assay results: patent US11369605B2, “Optically active azabicyclo ring derivative” (priority 2018, dated 2022)
For at least one compound, name, drawing or mass did not settle the structure.

Amino acid sequences for entries named in this document (tags omitted). Chains listed by the source or under a name are the forms on record and can include a tag or linker.
UniProt O00255, other isoform, or with tags, fused parts or gaps: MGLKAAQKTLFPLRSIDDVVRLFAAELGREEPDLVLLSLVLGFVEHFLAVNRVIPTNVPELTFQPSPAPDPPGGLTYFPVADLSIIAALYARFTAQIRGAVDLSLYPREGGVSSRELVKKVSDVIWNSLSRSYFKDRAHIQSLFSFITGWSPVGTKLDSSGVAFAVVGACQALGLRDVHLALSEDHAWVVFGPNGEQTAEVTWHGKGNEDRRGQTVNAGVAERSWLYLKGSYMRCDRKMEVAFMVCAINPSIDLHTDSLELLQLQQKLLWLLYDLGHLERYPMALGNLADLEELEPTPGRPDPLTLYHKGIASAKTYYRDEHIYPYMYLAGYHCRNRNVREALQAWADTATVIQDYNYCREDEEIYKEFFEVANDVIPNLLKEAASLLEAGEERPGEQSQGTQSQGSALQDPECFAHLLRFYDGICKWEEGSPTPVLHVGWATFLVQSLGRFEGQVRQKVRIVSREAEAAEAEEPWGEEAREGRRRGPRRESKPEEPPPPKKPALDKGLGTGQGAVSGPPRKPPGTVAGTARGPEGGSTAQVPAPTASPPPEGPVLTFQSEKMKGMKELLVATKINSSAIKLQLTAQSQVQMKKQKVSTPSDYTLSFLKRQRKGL

Biological target: Menin-MLL binding (His-Menin1-615, MLL1-172-FLAG) (Homo sapiens (Human), UniProt O00255)
Assay: Test 1: inhibition of the Menin-MLL binding (HTRF)
Settings: summary of Test 1 table
Protocol: Test 1: Test for Evaluating the Inbinition of the Menin-MLL Binding
After the incubation, the signal was detected with RUBYstar (BMG LABTECH).

SMILES | Menin-MLL binding inhibition activity (in words)
C=C1C[C@H]2CC[C@@H]1N[C@@H]2C(=O)N1CC2(C1)CN(c1ncncc1Oc1ccc(F)cc1C(=O)N(C(C)C)C(C)C)C2 [Example 9, 5-fluoro-2-[(4-{6-[(1S,3S,4R)-6-methylidene-2-azabicyclo[2.2.2]octane-3-carbonyl]-2,6-diazaspiro[3.3]heptan-2-yl}pyrimidin-5-yl)oxy]-N,N-di(propan-2-yl)benzamide] | potent
C=C1C[C@H]2CC[C@@H]1N[C@@H]2C(=O)N1CCC2(CC1)CN(c1ncncc1Oc1ccc(F)cc1C(=O)N(C(C)C)C(C)C)C2 [Example 8, 5-fluoro-2-[(4-{7-[(1S,3S,4R)-6-methylidene-2-azabicyclo[2.2.2]octane-3-carbonyl]-2,7-diazaspiro[3.5]nonan-2-yl}pyrimidin-5-yl)oxy]-N,N-di(propan-2-yl)benzamide] | potent
